## Percent effect of library compounds

Data taken from ChEMBL document CHEMBL3988442, “University of Dundee, Small-Polar-MMV Screening Library” (2021).

A: 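Whole-cell growth test on Mycobacterium tuberculosis, read after 3 days in glucose-containing 7H9 medium; the read-out is not stated. Compounds at 50 µM. Direction is inferred from retests: higher values go with more growth inhibition. Of about 69,000 compounds tested this way, about 760 (1.1%) reached 50% or more in at least one test.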
B: 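Whole-cell growth test on Mycobacterium tuberculosis, read after 4 days in a medium based on cholesterol and the lipid DPPC; the read-out is not stated. Tested at 50 µM. Higher reads as more growth inhibition (inferred: compounds with an IC50 in retests scored well above the rest). Size under these conditions: about 69,000 compounds, about 370 of them at 50% or above in at least one test.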

Each number is a percent effect as filed. How 0% and 100% were set is not recorded. Most values in the screen are low, and negative values occur. This is an unselected part of the compounds tested. Two or more numbers in one place are separate tests of the same structure; such repeats can differ widely.

With Cc1csc(C2CCCCN2C(=O)c2cc(C3CC3)[nH]n2)n1 (centres unmarked) the screen gave A: 20.64%; B: -0.9869%. CNC(=O)CS(=O)(=O)C1CCN(S(=O)(=O)c2cccnc2)CC1 gave A: 17.89%; B: 20.09%. For Cc1ccc(N2CC[C@H](OCC3CC3)[C@@H]2Cc2cnn(C)c2)nn1 the result was A: 14.95%; B: -10.59% & -12.3%. Result for CCN(Cc1nc2c(cnn2C)c(=O)[nH]1)c1cccc(Cl)c1 was A: 17.64%; B: 14%.

COC(=O)c1ccc(N2CCC(c3ccccc3)CC2)nn1 gave A: 43.84%; B: 32.88%. Result for CC(C)(C)OC(=O)N1CCCN1C(=O)c1cccc2cc[nH]c12 was A: -17.83%; B: -2.32%. CCn1nc(CC(C)C)cc1C(=O)NCc1c(C)cc(C)nc1OC read A: -10.84%; B: -29.21%. CC(C)N1CCC(c2cccc(C(=O)N(C)C)n2)CC1 read A: 15.38%; B: -15.68%.

Result for CCN1CCN(C(=O)c2csnn2)c2ccccc21 was A: 7.662% & 5.154%; B: 4.847%. COCC(=O)N1CCCC1(C)c1nc(C)cc(O)n1 (centres unmarked) read A: -15.44%; B: -2.775%. CCNC(=O)C1(Cc2ccc(-c3ccccc3)cc2)CCCNC1 (centres unmarked) read A: -33.4%; B: -6.242%. Result for Cn1nccc1-c1ncc2c(c1C(=O)O)CCN(Cc1ccncc1)C2.O=C(O)C(F)(F)F.O=C(O)C(F)(F)F was A: -14.24% & -12.5%; B: 15.32%.

For O=C(O)C(F)(F)F.O=C(O)C(F)(F)F.c1cncc(-c2ccc3c(c2)CCC32CCN(Cc3nccs3)CC2)c1 the result was A: 40.75% & 47.77%; B: 19.61%. Result for CNc1nc(CS(=O)(=O)c2ccccc2)cs1 was A: 1.053% & -1.136%; B: -3.109%. With CN1C(=O)CC(C(=O)O)C12CCN(c1ccc3cccc(Cl)c3n1)CC2 (centres unmarked) the screen gave A: -3.722%; B: 19.41%. Cc1ccc(-c2cc(N)c(=O)n(C(C)C(=O)NCC3CCCCC3)n2)s1 (centres unmarked) read A: -9.319%; B: -8.581%.

Result for [H][C@]12CCC[C@@H](CN3CCCC3)[C@@]1([H])CN(c1cc(OC)ncn1)C2 was A: 24.83%; B: -9.67%. CCSCCC(=O)Nc1ncn(CC(=O)NCc2ccccc2)n1 read A: 20.09%; B: 10.72%. For Cn1cc(C(=O)N2CCCC(Cc3cccc4ncccc34)C2)cn1 (centres unmarked) the result was A: -28.87%; B: -6.474%. Result for CNC(=O)C1CN(c2ncccn2)CCN1Cc1ccccc1 (centres unmarked) was A: 13.62%; B: 16.62%.

Result for CCCN1CCCn2nc(CNS(=O)(=O)c3cccc(C#N)c3)cc2C1 was A: -21.62%; B: -23.16%. For Cl.O=C(c1cccnc1)N1CCC2(CC1)CNc1c(F)cccc12 the result was A: -5.319%; B: 48.67%. For CCC1CN(c2cnn(C)c(=O)c2Br)CCO1 (centres unmarked) the result was A: -15.23%; B: -19.94%. For COc1ccccc1CNc1c(O)c(=O)c1=O the result was A: -8.688%; B: -7.893%.

c1ccc(Oc2ncccc2CNCc2ccccn2)cc1 gave A: 46.21%; B: 22.98%. O=C(NCC1CC1)C1CN(C(=O)Nc2ccccc2)CC12CCOCC2 (centres unmarked) gave A: -21.87%; B: -23.52%. N#Cc1cnc(NCc2ccc(C(=O)NC3CC3)cc2)c(Cl)c1 gave A: -9.937%; B: -25.85%. For O=C1C(Nc2ncccn2)CCN1c1ccccc1OC(F)F (centres unmarked) the result was A: 13.3% & 16.24%; B: 26%.

For CCCn1cc(NC(=O)c2ccncc2)ccc1=O the result was A: -9.088%; B: -14.22%. With c1cc(CNCc2ccnc(N3CCOCC3)c2)c2c(c1)OCCO2 the screen gave A: 1.238%; B: -4.217%. Cc1ncc(S(C)(=O)=O)c(N2CCCCCC2)n1 read A: -10.14% & -42.46%; B: -1.465% & -9.587%. For c1ccc(Cc2nnc(CN3CCCC(Cn4cncn4)C3)o2)cc1 (centres unmarked) the result was A: 12.58%; B: 1.413%.

With Cc1cnn(CCNCC(=O)NCCOc2ccc(Cl)cc2)c1 the screen gave A: 10.79%; B: 14.38%. Result for O=C(c1cccc(CNC/C=C/c2ccccc2)c1)N1CCCC1 was A: -10.71% & 4.651%; B: -30.04%. Cc1ccc(-c2noc(CN3CCn4c(nnc4C4CC4)C3)n2)cc1 read A: 3.473%; B: 10.15%. Result for CCC(=O)N1CCCN(Cn2nc(C)c(Br)c2C)CC1 was A: 18.33%; B: -7.34%.

With Cc1ccccc1OCCN1CCn2c(C)nnc2C1 the screen gave A: -38.74%; B: -35.79%. With O=C(O)C(F)(F)F.[H][C@@]12COC[C@]1(CNC(=O)CC1CC1)CN(c1ncccn1)C2 the screen gave A: -16.24%; B: -5.501%. Result for CCN1CCN(C(=O)c2cc(-c3cccs3)cs2)CC1 was A: 47.73%; B: 28.71%. O=C(c1cncc(F)c1)N1CCC(c2ncc[nH]2)CC1 read A: -14.2% & -1.769%; B: -1.922%.

With COc1ccccc1CNC(=O)c1ccccc1-n1cnc(CN)c1 the screen gave A: -0.4019%; B: -14.87%. O=S(=O)(Nc1cn[nH]c1)c1ccc(F)c(Br)c1 read A: 2.297%; B: 5.907%. Cc1ccc(OCC(O)CN(C)CC(=O)Nc2cc(C)on2)c(C)c1 (centres unmarked) gave A: -86.17%; B: -24.97% & -1.022%. For COc1ncc(NCc2cccc(C#N)c2)cc1C(N)=O the result was A: -2.083%; B: -18.69%.

Repeated from the top, 3 entries:

{"compound": "Cc1csc(C2CCCCN2C(=O)c2cc(C3CC3)[nH]n2)n1", "stereo": "centres unmarked", "A": 20.64, "B": -0.9869}
{"compound": "CNC(=O)CS(=O)(=O)C1CCN(S(=O)(=O)c2cccnc2)CC1", "A": 17.89, "B": 20.09}
{"compound": "Cc1ccc(N2CC[C@H](OCC3CC3)[C@@H]2Cc2cnn(C)c2)nn1", "A": 14.95, "B": "-10.59 & -12.3"}